For the assay, the target named is HA-GST-Rheb S20N variant (UniProt Q15382). Kind of assay: co-IP from HEK293 lysates, immunoblot. Background: A western blot detects proteins with antibodies after separation by electrophoresis.

Results are given in words; binding and its absence hold for the method and conditions named. Binding seen in cells or lysates may run through a third protein. A result given as binding can be weak or reduced; the word gives no strength.

B1: tdTomato-CIB2 (protein, not shown: large carriers)
chain: MGNKQTIFTEEQLDNYQDCTFFNKKDILKLHARFYELAPNLVPMDYRKSPIVHVPMSLIIQMPELRENPFKERIVEAFSEDGEGNLTFNDFVDMFSVLCESAPRELKANYAFKIYDFNTDNFICKEDLEMTLARLTKSELEEDEVVLVCDKVIEEADLDGDGKLGFADFEDMIAKAPDFLSTFHIRI
Take B1: the binding entry was “binds”.

The record behind these values is patent US20210290727A1 (UNIVERSITY OF MARYLAND BALTIMORE, published 2021).
